Laboratory results from the supplement of paper PMC10849652.
This is one part of the list.

The chains behind the UniProt entries cited, without tags or fusion partners. Where a name states a change or a piece, a line headed by the entry shows the natural chain unless it says otherwise.
UniProt Q9Y2L5: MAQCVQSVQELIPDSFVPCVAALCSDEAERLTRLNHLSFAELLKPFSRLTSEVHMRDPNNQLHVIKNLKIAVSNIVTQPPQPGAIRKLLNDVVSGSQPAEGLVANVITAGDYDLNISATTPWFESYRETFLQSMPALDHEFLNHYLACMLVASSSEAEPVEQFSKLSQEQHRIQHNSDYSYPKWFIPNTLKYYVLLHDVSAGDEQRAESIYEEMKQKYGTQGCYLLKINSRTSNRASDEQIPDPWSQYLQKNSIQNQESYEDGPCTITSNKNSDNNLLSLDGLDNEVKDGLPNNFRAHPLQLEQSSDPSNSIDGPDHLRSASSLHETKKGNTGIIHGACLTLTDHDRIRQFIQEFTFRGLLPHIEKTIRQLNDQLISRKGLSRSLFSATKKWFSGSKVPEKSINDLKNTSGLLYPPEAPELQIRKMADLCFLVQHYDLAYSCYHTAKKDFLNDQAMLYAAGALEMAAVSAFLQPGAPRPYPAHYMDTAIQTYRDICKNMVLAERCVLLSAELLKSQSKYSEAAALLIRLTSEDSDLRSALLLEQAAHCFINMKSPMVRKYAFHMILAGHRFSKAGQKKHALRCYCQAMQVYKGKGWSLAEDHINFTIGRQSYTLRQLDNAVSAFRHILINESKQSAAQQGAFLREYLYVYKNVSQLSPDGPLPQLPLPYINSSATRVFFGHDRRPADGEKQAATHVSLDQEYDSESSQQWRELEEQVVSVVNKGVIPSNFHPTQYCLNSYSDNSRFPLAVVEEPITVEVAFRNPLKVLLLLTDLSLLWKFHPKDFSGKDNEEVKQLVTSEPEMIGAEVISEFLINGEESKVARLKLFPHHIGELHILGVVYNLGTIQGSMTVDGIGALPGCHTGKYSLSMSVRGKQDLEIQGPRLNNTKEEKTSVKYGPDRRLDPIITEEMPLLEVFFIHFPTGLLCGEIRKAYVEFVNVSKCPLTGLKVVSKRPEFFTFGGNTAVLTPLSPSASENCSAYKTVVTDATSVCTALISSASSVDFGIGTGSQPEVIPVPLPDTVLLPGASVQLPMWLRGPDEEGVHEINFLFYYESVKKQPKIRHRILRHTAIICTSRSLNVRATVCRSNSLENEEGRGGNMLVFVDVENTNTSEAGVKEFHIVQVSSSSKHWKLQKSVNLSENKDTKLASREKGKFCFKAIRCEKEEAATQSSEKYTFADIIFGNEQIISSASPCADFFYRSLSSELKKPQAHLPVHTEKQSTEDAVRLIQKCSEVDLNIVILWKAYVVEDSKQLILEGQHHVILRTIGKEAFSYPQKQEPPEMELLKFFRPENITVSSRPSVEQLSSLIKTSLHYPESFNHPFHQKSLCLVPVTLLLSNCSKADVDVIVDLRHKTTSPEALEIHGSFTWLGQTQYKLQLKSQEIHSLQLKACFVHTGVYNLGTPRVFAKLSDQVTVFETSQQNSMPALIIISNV
UniProt Q9BUZ4: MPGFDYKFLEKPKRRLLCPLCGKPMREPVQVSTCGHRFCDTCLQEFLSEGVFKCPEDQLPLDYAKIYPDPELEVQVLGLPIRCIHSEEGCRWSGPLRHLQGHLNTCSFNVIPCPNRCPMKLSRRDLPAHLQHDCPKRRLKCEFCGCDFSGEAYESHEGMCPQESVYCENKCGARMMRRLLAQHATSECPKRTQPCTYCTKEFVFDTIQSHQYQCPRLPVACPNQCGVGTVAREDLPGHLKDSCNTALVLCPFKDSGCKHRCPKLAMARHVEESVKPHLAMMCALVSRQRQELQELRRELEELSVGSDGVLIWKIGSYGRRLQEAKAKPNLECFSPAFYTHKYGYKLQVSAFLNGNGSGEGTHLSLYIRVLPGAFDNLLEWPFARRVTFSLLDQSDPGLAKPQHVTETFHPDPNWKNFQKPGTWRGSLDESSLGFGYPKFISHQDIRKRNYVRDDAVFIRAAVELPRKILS
UniProt Q9BSV6: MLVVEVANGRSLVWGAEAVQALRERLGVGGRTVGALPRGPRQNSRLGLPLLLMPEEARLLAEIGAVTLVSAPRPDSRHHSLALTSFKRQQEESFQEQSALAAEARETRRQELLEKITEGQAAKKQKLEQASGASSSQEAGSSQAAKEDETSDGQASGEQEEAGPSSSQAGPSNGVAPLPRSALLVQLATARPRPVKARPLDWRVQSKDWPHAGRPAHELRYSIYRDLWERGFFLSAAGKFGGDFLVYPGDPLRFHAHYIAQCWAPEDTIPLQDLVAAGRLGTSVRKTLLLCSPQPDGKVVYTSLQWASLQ
UniProt O43617, whole entry, looked up: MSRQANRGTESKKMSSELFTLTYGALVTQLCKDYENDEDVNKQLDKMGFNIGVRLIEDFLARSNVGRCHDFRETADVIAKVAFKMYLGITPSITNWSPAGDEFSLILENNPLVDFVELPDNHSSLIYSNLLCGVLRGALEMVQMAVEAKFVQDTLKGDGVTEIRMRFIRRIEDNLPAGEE
UniProt P36406: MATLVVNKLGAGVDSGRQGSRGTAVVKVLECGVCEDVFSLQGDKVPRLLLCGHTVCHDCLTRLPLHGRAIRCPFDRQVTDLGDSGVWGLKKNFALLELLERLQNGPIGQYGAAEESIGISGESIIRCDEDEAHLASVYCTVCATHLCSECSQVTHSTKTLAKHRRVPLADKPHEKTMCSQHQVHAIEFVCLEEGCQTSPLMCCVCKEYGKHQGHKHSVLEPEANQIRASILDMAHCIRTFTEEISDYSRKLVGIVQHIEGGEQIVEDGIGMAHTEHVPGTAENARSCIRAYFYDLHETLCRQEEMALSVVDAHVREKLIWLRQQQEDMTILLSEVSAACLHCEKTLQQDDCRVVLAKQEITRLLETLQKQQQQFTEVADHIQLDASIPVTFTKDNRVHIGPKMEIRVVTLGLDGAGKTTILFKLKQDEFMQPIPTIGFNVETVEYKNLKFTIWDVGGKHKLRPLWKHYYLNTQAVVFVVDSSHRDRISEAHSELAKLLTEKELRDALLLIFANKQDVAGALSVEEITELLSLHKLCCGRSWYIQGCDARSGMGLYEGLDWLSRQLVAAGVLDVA
UniProt Q96Q05, whole entry, looked up: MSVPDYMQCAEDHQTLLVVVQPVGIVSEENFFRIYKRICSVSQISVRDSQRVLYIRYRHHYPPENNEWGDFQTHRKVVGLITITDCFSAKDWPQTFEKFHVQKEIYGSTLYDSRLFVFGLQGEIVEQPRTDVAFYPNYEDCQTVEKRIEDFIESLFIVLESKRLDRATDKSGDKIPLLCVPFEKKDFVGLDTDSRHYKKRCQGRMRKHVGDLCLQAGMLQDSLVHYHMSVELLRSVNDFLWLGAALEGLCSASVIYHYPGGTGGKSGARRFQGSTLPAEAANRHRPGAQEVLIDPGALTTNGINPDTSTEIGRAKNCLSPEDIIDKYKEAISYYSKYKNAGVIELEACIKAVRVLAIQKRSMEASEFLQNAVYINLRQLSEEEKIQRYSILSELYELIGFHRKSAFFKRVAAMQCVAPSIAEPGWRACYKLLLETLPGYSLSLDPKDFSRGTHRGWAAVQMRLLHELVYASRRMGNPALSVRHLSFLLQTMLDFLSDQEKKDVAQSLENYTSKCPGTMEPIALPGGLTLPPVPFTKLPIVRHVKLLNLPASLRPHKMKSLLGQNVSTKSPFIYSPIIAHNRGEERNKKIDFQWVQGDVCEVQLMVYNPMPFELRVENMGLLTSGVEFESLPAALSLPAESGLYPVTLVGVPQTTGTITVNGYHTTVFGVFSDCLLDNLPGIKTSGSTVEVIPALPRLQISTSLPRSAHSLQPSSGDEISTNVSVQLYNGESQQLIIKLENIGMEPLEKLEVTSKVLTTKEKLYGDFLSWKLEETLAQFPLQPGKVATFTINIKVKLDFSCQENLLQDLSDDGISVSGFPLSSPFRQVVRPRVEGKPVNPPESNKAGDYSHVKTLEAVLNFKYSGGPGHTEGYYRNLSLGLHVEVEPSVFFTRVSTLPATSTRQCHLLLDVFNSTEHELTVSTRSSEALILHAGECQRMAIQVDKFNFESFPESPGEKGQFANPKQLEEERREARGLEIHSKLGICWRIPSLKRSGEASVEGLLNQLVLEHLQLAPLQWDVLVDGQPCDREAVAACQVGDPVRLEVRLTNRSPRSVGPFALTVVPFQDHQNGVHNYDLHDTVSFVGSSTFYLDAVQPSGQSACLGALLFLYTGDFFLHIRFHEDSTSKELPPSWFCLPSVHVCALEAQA
UniProt Q8WWH5: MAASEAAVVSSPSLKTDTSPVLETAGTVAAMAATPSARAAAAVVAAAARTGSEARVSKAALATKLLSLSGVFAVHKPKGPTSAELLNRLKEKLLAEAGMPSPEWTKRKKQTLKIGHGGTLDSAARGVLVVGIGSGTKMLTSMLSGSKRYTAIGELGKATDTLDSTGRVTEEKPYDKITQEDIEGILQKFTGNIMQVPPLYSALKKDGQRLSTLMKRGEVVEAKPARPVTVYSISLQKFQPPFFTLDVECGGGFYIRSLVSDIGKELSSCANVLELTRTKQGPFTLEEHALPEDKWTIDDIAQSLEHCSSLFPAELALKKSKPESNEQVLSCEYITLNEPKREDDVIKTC
UniProt Q15650: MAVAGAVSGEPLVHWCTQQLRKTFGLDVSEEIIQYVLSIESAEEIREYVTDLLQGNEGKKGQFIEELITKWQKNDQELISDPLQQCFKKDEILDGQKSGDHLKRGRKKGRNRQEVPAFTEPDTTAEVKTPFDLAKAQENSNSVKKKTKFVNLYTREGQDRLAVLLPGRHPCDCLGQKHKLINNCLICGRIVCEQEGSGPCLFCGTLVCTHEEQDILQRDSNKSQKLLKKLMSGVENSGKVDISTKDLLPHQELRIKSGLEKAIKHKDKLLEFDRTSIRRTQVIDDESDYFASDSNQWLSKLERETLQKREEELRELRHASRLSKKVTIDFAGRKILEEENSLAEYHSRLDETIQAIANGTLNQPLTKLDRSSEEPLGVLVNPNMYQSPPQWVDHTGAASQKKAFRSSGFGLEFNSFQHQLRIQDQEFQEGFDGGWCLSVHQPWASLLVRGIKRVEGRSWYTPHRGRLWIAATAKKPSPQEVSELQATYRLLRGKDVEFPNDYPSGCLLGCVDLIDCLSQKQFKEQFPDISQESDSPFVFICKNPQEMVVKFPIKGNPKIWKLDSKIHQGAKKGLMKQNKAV
UniProt O14545: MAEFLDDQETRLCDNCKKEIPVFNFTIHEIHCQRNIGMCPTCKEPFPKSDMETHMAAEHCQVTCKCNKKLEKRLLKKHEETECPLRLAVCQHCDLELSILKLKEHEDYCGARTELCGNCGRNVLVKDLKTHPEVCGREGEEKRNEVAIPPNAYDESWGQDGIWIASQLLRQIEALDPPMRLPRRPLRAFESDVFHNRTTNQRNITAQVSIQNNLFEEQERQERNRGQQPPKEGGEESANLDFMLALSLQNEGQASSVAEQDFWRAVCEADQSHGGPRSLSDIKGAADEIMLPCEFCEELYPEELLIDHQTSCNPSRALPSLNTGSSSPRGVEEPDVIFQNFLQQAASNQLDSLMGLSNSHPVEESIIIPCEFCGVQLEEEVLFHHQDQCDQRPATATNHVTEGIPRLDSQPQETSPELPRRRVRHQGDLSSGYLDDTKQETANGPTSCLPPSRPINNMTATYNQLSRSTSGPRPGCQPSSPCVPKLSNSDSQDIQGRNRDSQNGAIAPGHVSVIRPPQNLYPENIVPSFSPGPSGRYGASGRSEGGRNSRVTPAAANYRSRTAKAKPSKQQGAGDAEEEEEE
UniProt Q86SZ2: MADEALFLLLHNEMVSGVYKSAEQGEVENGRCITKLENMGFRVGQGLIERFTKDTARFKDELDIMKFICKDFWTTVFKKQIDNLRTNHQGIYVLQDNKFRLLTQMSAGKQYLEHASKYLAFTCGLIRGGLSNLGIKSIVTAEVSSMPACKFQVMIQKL
UniProt Q15642: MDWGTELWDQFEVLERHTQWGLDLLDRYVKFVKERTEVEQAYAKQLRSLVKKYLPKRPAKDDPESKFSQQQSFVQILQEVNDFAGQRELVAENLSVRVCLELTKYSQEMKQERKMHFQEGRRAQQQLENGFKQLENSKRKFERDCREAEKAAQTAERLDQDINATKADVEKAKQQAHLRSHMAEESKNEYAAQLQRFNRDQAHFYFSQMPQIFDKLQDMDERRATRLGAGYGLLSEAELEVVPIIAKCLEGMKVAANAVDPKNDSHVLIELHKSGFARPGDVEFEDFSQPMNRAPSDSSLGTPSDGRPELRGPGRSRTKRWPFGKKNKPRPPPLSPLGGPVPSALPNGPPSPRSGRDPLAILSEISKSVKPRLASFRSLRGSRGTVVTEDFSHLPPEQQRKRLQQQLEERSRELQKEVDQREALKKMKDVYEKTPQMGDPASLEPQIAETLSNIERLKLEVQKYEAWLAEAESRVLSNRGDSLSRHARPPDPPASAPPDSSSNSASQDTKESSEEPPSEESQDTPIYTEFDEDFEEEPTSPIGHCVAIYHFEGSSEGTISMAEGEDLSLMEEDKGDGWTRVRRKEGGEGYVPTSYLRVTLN
UniProt O75865, whole entry, looked up: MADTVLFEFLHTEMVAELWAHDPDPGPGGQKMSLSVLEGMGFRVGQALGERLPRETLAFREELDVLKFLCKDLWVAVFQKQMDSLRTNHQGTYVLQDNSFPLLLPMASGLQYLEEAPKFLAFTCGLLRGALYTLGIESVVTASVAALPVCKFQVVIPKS

Compound: C1=CC2=NC=CN=C2C=C1/C=C/3\C(=O)NC(=O)S3
Experiment: log2 fold change, soluble protein after heating vs DMSO (PISA); higher = thermal stabilisation; K562 lysate, 10 uM; active = over 0.2 and 3.5 SD of the protein, either way, in both replicates (recomputed)
Summary of the method: (§1)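 To prepare the extract, K562 pellets were dounce-homogenised in PBS pH 7.4 with 1 mM MgCl2, giving crude material at 1 mg/mL protein. This was treated with 10 μM compound for 30 min, then heated in aliquots for 3 min over 48°C-58°C before pooling and addition of NP-40 to 0.5% at 4°C. Centrifugation at 21,000xg for 90 min left soluble protein in the supernatant, which TMTpro 16plex LC-MS/MS quantified with equalised channel sums. Results are log-two fold changes in thermal stability compared with solvent controls, from duplicates.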

log2 fold change, inactive:
TRAPPC8 (UniProt Q9Y2L5) -0.024
TRAF4 (UniProt Q9BUZ4) -0.084
TSEN34 (UniProt Q9BSV6) 0.004
TRAPPC3 (UniProt O43617) -0.003
TRIM23 (UniProt P36406) 0.034
TRAPPC9 isoform 2 (UniProt Q96Q05) -0.04
TRUB1 (UniProt Q8WWH5) -0.031
TRIP4 (UniProt Q15650) -0.039
TRAFD1 (UniProt O14545) 0.012
TRAPPC6B (UniProt Q86SZ2) -0.004

Compound: C1=CC=C(C=C1)C2=NC(=C(N2)C3=CC=NC=C3)C4=CC(=C(C=C4)Cl)O
Experiment: as above
Summary of the method: as §1

log2 fold change, inactive:
TRAP1 (UniProt Q12931) -0.005
TTI1 (UniProt O43156) -0.02
TRNT1 (UniProt Q96Q11) -0.025
TSEN54 (UniProt Q7Z6J9) 0.018
TSN (UniProt Q15631) -0.004
TRMT2A (UniProt Q8IZ69) -0.012
TTC33 (UniProt Q6PID6) 0.03
TRMU (UniProt O75648) 0.009
TSC22D1 (UniProt Q15714) 0.013
TTC19 (UniProt Q6DKK2) 0.019
TRIM11 (UniProt Q96F44) -0.018
TRIP10 (UniProt Q15642) 0.021
TRIM24 (UniProt O15164) 0.016
TRIM28 (UniProt Q13263) -0.001
TRMT1 (UniProt Q9NXH9) 0
TRIM44 (UniProt Q96DX7) -0.013
TRAPPC6A isoform 2 (UniProt O75865) -0.016
TRIP10 isoform 2 (UniProt Q15642) 0.019
TRIM32 (UniProt Q13049) 0.025
TSG101 (UniProt Q99816) -0.009
TSTA3 (UniProt Q13630) 0.013
TRIP6 (UniProt Q15654) 0.056
TTLL12 (UniProt Q14166) 0.005
TRAPPC8 (UniProt Q9Y2L5) -0.023
TRAF4 (UniProt Q9BUZ4) 0
TSEN34 (UniProt Q9BSV6) 0.02
TRAPPC3 (UniProt O43617) -0.007
TRIM23 (UniProt P36406) 0.493
TRAPPC9 isoform 2 (UniProt Q96Q05) -0.012
TRUB1 (UniProt Q8WWH5) 0.012
TRIP4 (UniProt Q15650) 0.051
TRAFD1 (UniProt O14545) -0.062
TRAPPC6B (UniProt Q86SZ2) 0.006

Compound: C1=CC=C2C(=C1)C3=NNC4=CC=CC(=C43)C2=O
Experiment: as above
Summary of the method: as §1

log2 fold change, inactive:
TRAP1 (UniProt Q12931) 0.005
TTI1 (UniProt O43156) -0.003
TRNT1 (UniProt Q96Q11) -0.007
TSEN54 (UniProt Q7Z6J9) -0.076
TSN (UniProt Q15631) -0.024
TRMT2A (UniProt Q8IZ69) -0.004
TTC33 (UniProt Q6PID6) -0.025
TRMU (UniProt O75648) -0.036
TSC22D1 (UniProt Q15714) 0.03
TTC19 (UniProt Q6DKK2) 0.009
TRIM11 (UniProt Q96F44) -0.032
TRIP10 (UniProt Q15642) -0.055
TRIM24 (UniProt O15164) -0.02
TRIM28 (UniProt Q13263) 0.005
TRMT1 (UniProt Q9NXH9) 0.015
TRIM44 (UniProt Q96DX7) -0.038
TRAPPC6A isoform 2 (UniProt O75865) -0.005
TRIP10 isoform 2 (UniProt Q15642) 0.035
TRIM32 (UniProt Q13049) 0
TSG101 (UniProt Q99816) -0.005
TSTA3 (UniProt Q13630) 0.041
TRIP6 (UniProt Q15654) 0.002
TTLL12 (UniProt Q14166) -0.023
TRAPPC8 (UniProt Q9Y2L5) -0.03
TRAF4 (UniProt Q9BUZ4) 0.068
TSEN34 (UniProt Q9BSV6) -0.031
TRAPPC3 (UniProt O43617) 0.021
TRIM23 (UniProt P36406) -0.011
TRAPPC9 isoform 2 (UniProt Q96Q05) -0.005
TRUB1 (UniProt Q8WWH5) 0.007
TRIP4 (UniProt Q15650) -0.092
TRAFD1 (UniProt O14545) 0.023
TRAPPC6B (UniProt Q86SZ2) -0.01
